These are yes or no findings as the source states them, for the method shown. Binding seen in cells or lysates may run through a third protein. Binding can be weak; no strength is given.
Key:
[1] = biological target: E-cadherin (human (endogenous in T84)); experiment: co-IP; anti-E-cadherin immunoprecipitation from T84 cells lysed in high-salt-containing buffer; unstimulated or IFNγ-treated; immunoblot
[2] = biological target: E-cadherin (human (endogenous in T84)); experiment: co-IP; anti-E-cadherin antibody (monoclonal, C-terminal epitope) and protein A-agarose on detergent-free low-salt (hypotonic Buffer A) lysates of T84 cells; unstimulated, IFNγ 10 ng/ml 6 h, IFNγ + PP1 125 nM; immunoblot
[3] = biological target: E-cadherin (human (endogenous in T84)); experiment: co-IP; anti-E-cadherin antibody (2 µg/ml, overnight, 4°C) and protein A-agarose on RIPA lysates (400 µg) of T84 cells; IFNγ 10 ng/ml 24 h, control or Fyn siRNA; immunoblot

| Binder | binding [1] | binding [2] | binding [3] |
| --- | --- | --- | --- |
| p120-catenin (protein, UniProt O60716 1-968) MDDSEVESTASILASVKEQEAQFEKLTRALEEERRHVSAQLERVRVSPQDANPLMANGTLTRRHQNGRFVGDADLERQKFSDLKLNGPQDHSHLLYSTIPRMQEPGQIVETYTEEDPEGAMSVVSVETSDDGTTRRTETTVKKVVKTVTTRTVQPVAMGPDGLPVDASSVSNNYIQTLGRDFRKNGNGGPGPYVGQAGTATLPRNFHYPPDGYSRHYEDGYPGGSDNYGSLSRVTRIEERYRPSMEGYRAPSRQDVYGPQPQVRVGGSSVDLHRFHPEPYGLEDDQRSMGYDDLDYGMMSDYGTARRTGTPSDPRRRLRSYEDMIGEEVPSDQYYWAPLAQHERGSLASLDSLRKGGPPPPNWRQPELPEVIAMLGFRLDAVKSNAAAYLQHLCYRNDKVKTDVRKLKGIPVLVGLLDHPKKEVHLGACGALKNISFGRDQDNKIAIKNCDGVPALVRLLRKARDMDLTEVITGTLWNLSSHDSIKMEIVDHALHALTDEVIIPHSGWEREPNEDCKPRHIEWESVLTNTAGCLRNVSSERSEARRKLRECDGLVDALIFIVQAEIGQKDSDSKLVENCVCLLRNLSYQVHREIPQAERYQEAAPNVANNTGPHAASCFGAKKGKDEWFSRGKKPIEDPANDTVDFPKRTSPARGYELLFQPEVVRIYISLLKESKTPAILEASAGAIQNLCAGRWTYGRYIRSALRQEKALSAIADLLTNEHERVVKAASGALRNLAVDARNKELIGKHAIPNLVKNLPGGQQNSSWNFSEDTVISILNTINEVIAENLEAAKKLRETQGIEKLVLINKSGNRSEKEVRAAALVLQTIWGYKELRKPLEKEGWKKSDFQVNLNNASRSQSSHSYDDSTLPLIDRNQKSDKKPDREEIQMSNMGSNTKSLDNNYSTPNERGDHNRTLDRSGDLGDMEPLKGTTPLMQDEGQESLEEELDVLVLDDEGGQVSYPSMQKI | binds | binds | – |
| E3 ubiquitin ligase Hakai (enzyme, UniProt Q75N03 1-491) MDHTDNELQGTNSSGSLGGLDVRRRIPIKLISKQANKAKPAPRTQRTINRMPAKAPPGDEEGFDYNEEERYDCKGGELFANQRRFPGHLFWDFQINILGEKDDTPVHFCDKCGLPIKIYGRMIPCKHVFCYDCAILHEKKGDKMCPGCSDPVQRIEQCTRGSLFMCSIVQGCKRTYLSQRDLQAHINHRHMRAGKPVTRASLENVHPPIAPPPTEIPERFIMPPDKHHMSHIPPKQHIMMPPPPLQHVPHEHYNQPHEDIRAPPAELSMAPPPPRSVSQETFRISTRKHSNLITVPIQDDSNSGAREPPPPAPAPAHHHPEYQGQPVVSHPHHIMPPQQHYAPPPPPPPPISHPMPHPPQAAGTPHLVYSQAPPPPMTSAPPPITPPPGHIIAQMPPYMNHPPPGPPPPQHGGPPVTAPPPHHYNPNSLPQFTEDQGTLSPPFTQPGGMSPGIWPAPRGPPPPPRLQGPPSQTPLPGPHHPDQTRYRPYYQ | – | – | binds |
